Measured values taken from patent publication US20020160988A1 (priority 2001, published 2002).
For part of its entries the source gives two or more results. They are shown here; other results are not. There may be further records. The values listed for one entry differ for a reason that is not stated; some may be repeats, others may stem from another dose, organism or construct than stated.

System: closed head injury
Assay: Protection against closed head injury in mice
Assay type: in vivo
Settings: 10 mg/kg i.p.; tested form: bromide

## COc1ccc2cc(C(C)C(=O)OCCCCCCCC[n+]3cccc(OC(=O)N(C)C)c3)ccc2c1 (stereo not shown)
  DNSS (difference in neurological severity score, 1 h − 24 h): 2.25 and 2.3 ·
